In US10801054B2 (priority 2013, dated 2020):
Where “and” joins values, the source holds several entries; their conditions need not be identical. Equal values may be shown once.

Test system: Phage litmus

CO [MeOH, methanol]
Color change of Phage litmus bands upon exposure: immediately changed color
Red-green-blue (RGB) color differences G3: 3.55 and 4.45 and 4.18
Red-green-blue (RGB) color differences G4: 2.49 and 3.38 and 3.00
Red-green-blue (RGB) color differences R1: 1.58 and 2.13 and 1.88
Red-green-blue (RGB) color differences R3: 2.90 and 3.74 and 3.27
Red-green-blue (RGB) color differences R4: 1.42 and 1.65 and 1.73
Time in which all color matrices of the Phage litmus responded: 30 s
